According to publication PMC11516157:
These are yes or no findings as the source states them, for the method shown. In cells and extracts the contact can be indirect. Binding can be weak; no strength is given. For some of these results: Where a sequence is shown, tags or fusion partners need not be part of it.

The chains behind the UniProt entries cited, without tags or fusion partners. Where a name states a change or a piece, a line headed by the entry shows the natural chain unless it says otherwise.
UniProt P12643: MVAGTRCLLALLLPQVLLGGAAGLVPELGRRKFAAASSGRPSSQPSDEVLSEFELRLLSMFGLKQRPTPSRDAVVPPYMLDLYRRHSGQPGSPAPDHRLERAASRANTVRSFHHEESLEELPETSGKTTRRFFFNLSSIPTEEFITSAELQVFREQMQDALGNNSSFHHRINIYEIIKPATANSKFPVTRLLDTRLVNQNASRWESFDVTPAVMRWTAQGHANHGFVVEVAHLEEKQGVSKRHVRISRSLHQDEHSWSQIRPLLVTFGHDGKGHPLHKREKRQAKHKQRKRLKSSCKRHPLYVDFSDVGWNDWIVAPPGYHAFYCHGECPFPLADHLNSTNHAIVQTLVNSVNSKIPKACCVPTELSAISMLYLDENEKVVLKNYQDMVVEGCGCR
UniProt P46934: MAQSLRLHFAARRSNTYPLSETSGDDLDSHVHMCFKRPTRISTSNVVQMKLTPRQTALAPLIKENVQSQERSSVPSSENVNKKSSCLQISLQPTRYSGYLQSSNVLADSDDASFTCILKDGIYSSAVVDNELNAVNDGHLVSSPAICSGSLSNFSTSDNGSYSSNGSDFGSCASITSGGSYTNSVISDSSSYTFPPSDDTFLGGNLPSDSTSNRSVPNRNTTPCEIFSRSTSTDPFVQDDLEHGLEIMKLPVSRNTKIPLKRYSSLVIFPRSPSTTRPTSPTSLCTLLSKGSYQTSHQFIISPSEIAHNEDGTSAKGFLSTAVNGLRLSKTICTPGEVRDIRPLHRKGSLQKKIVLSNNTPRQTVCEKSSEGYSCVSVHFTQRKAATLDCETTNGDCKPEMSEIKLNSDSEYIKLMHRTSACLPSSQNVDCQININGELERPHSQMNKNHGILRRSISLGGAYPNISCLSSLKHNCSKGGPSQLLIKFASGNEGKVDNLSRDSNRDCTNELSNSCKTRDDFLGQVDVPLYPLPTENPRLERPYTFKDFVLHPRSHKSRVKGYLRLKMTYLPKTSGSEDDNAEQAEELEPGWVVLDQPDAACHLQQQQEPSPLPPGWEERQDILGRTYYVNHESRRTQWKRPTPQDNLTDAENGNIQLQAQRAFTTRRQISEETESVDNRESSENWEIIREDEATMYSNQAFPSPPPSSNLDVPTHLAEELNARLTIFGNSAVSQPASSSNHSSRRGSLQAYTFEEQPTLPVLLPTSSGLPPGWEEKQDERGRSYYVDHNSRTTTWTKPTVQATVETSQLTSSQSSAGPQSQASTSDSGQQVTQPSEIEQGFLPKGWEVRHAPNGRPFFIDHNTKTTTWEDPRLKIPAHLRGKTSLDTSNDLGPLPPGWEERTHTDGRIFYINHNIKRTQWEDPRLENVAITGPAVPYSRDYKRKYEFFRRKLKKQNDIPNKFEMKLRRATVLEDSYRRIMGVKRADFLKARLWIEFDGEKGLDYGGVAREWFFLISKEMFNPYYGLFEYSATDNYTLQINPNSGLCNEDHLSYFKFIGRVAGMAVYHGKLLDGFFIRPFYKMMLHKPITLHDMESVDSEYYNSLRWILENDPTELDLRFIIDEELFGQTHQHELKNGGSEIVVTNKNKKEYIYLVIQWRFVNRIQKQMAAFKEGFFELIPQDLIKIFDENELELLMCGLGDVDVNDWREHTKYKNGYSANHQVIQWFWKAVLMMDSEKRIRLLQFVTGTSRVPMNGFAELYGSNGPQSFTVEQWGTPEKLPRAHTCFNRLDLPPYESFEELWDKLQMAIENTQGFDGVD
UniProt Q9HCE7: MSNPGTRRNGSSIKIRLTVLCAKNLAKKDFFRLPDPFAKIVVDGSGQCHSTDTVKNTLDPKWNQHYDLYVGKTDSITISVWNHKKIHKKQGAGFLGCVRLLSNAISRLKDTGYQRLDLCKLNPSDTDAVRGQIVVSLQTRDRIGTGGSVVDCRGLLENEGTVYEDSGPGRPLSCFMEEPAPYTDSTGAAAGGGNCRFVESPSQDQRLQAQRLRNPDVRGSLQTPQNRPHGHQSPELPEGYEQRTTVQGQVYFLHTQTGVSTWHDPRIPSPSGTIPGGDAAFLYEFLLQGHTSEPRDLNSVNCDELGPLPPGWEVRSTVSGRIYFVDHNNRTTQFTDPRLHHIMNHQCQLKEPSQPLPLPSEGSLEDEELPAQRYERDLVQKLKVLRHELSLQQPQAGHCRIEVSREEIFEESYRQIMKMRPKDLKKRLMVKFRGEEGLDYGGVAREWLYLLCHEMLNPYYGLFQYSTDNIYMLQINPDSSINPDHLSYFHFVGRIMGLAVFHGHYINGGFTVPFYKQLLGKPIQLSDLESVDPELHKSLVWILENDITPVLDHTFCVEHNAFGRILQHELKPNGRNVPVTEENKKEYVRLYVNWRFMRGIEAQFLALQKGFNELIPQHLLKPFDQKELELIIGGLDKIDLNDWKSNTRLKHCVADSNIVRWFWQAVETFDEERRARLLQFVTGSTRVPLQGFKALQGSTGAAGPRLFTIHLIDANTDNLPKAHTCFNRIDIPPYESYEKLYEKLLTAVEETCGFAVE
UniProt Q9HAU4: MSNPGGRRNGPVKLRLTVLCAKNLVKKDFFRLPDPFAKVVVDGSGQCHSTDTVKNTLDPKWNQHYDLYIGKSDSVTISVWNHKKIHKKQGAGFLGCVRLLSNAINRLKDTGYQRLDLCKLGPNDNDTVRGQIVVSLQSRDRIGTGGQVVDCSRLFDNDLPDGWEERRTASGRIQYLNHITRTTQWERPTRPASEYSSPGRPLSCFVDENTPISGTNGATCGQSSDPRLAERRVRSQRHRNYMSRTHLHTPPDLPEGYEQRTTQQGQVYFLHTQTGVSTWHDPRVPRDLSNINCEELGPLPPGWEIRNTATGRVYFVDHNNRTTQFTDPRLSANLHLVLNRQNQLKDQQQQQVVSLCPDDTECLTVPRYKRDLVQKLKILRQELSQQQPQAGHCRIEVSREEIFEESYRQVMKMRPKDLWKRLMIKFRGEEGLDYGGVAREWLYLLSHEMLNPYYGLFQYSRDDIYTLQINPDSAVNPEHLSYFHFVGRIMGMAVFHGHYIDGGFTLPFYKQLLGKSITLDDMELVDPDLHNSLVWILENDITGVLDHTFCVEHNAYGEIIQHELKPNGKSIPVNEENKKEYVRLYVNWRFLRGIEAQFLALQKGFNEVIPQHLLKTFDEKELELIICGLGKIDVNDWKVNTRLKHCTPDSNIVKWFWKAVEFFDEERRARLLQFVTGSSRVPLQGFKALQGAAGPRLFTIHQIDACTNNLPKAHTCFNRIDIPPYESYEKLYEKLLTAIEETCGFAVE

Key:
[1] = molecular target: bone morphogenetic protein 2 (BMP2), endogenous in human renal interstitial fibroblasts (human (endogenous in hRIFs)) (UniProt P12643); assay: co-IP; anti-BMP2 or IgG immune-precipitates from hRIFs transfected with Len-sh-ctrl or Len-sh-OMD; blots for SMURF1, SMURF2, NEDD4
Flag-OMD = molecular target: T1, Flag-OMD (UniProt Q99983); assay: co-IP; hRIFs transfected with p-HA-BMP2 or/and p-Flag-OMD; Flag-OMD and HA-BMP2 analysed by WB in immune-precipitates
T1 sequence: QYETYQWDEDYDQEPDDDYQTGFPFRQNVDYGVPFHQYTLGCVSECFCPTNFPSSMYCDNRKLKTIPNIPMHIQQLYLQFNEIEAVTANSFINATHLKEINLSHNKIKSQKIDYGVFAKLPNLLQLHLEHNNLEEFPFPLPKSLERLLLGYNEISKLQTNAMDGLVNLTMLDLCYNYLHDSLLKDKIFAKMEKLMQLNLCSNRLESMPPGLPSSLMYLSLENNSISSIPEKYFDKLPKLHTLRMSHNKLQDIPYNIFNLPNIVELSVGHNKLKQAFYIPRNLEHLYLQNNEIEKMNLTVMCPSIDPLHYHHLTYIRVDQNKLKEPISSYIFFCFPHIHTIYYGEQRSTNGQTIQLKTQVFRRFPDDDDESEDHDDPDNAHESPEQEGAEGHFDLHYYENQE

binding [1] | binding (Flag-OMD) | Substance
binds | – | E3 ubiquitin ligase NEDD4 (from UniProt P46934 1-1319) (enzyme)
no binding | – | E3 ubiquitin ligase SMURF1 (from UniProt Q9HCE7 1-757) (enzyme)
binds | – | E3 ubiquitin ligase SMURF2 (from UniProt Q9HAU4 1-748) (enzyme)
– | binds | HA-BMP2 (from UniProt P12643)
